Results published in the supplement of paper PMC3334620.
The full ranking holds about 33,000 sequences; the median of “E-score (-0.5 to 0.5)” is about -8e-05, and the highest 2% start at about 0.23. Some of the results follow.

Each sequence was assayed against T1, Nrg2 (UniProt P38082) (assay: PBM E-score (8-mer binding enrichment) (E-score (-0.5 to 0.5)); higher = stronger / more preferred TF binding). Details: protein concentration: 100 nM; construct: GST-full length.
T1 sequence: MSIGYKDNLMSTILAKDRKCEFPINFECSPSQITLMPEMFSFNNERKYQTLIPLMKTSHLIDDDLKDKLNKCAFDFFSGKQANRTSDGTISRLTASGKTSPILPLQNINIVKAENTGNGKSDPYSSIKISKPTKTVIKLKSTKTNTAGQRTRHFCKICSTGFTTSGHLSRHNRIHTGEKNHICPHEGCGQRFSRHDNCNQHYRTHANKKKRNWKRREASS
Summary of the method: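 PURExpress in vitro transcription/translation supplied GST-tagged yeast transcription factors, either full-length or DNA-binding domain. Applied at about 100-200 nM to universal all-10-mer Agilent arrays double-stranded by primer extension, the bound protein was detected with fluorescent anti-GST. E-scores, modified Wilcoxon-Mann-Whitney statistics, were given by the Universal PBM Analysis Suite to ungapped eight-base words pooled with their reverse complements after masliner normalisation.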

Sequence | PBM E-score
ACAGAGAA | 0.111
CGAAAAAG | 0.137
ACGCCCGA | 0.0699
ACTTCCCA | 0.00528
CCTGTAAG | -0.15
GCATCAAC | 0.108
AAAATTTA | 0.00421
AACCGCGT | 0.0966
CTAGGAGA | -0.18
CACGTTCG | -0.105
ATACAAAC | 0.258
ATAGGCCG | -0.153
CACAGGTC | -0.0948
GTACTTAA | -0.079
CCCCTAAG | 0.0238
GAATTGGA | 0.0328
CGTTGCCC | -0.0711
CATGAACC | 0.233
CACGTAGC | -0.266
TTAATAAA | 0.201
TGACTCCA | -0.192
GTAATGGA | 0.188
GACCATGC | -0.0321
AAGACTTC | -0.17
CCGTCAGG | -0.1

Pulled one by one from above (4):
Sequence | PBM E-score
GTAATGGA | 0.188
ACTTCCCA | 0.00528
ATACAAAC | 0.258
CCGTCAGG | -0.1

(further entries)

Sequence | PBM E-score
ACTCCTGG | -0.0451
CCGATACG | -0.0651
AACGAACA | 0.148
GGCGCCGA | 0.0298
AGCCTGCC | -0.122
TCCAAAAA | -0.0003
CAACGTCA | -0.0824
GAGACCGA | -0.078
AGTGACCG | -0.126
ACGTCTAG | 0.00915
CCTGGCTC | 0.0122
GCCTAGGC | -0.00779
ACTCACGG | 0.117
CCGACGAA | 0.107
CAGTAAGA | 0.0713
ACCGTGGA | -0.124
AGTGGTGC | -0.0148
ACCCCCTG | -0.272
AGGTGAGC | -0.104
GCCTGACC | -0.0177
ATGACGAC | -0.0155
GTCAACCA | -0.176
ATCATCCC | 0.106
CGTTTATC | 0.07
AACCAACA | 0.152

Sequence | PBM E-score
CGTCATTA | 0.113
ACTAAACA | 0.0979
ATAGTGGG | 0.0056
ACCACGCG | -0.0119
CGCGTGGA | -0.0926
GTTAGGGA | 0.0242
CGTGGCAG | -0.0439
ACTTTCTC | -0.0867
GGTTTCAA | 0.0831
GCCCGGTA | -0.127
GTCGATCA | -0.0482
AATCTTGA | -0.147
ATTCGTTA | 0.165
ATTTTCCG | 0.249
CGTAAATA | -0.0234
ATTGAGCG | 0.0439
CGGACTGC | -0.17
AATGCATG | 0.174
CAGTTAAC | 0.117
AGGCATGG | -0.0771
ACCCATAA | 0.0509
GCTGCCCC | -0.205
AGATCGAG | 0.0728
GCCCCCTA | -0.212
AGCATGCC | -0.172

Sequence | PBM E-score
GGAAGTCA | -0.0228
AGTGCCTG | -0.0787
CACGCTAA | -0.149
CGCCCGCA | 0.229
AATGCTTA | 0.0576
AAACGAGA | 0.0619
GGGGTCAA | 0.0278
TGGCAGAA | 0.0411
CCCTGTTC | 0.0778
CGAATCTA | 0.0531
GATCCCCA | 0.0707
CAACTGGG | -0.0587
GAGCACAC | -0.173
ATCTCGCG | 0.282
CTTCCAAG | 0.00164
GTTGCATA | 0.0883
ATGTTAAC | 0.0602
AAGCCATG | -0.0445
ATCTACTA | 0.115
AGTCTCAG | -0.0158
ACTGTTTA | -0.0842
GACACCGA | -0.122
AGCAGCTA | 0.173
AACCCACC | 0.0928
CACTCAGG | 0.0769

Taken from above.
GTTGCATA | PBM E-score: 0.0883
AACCCACC | PBM E-score: 0.0928
CCCTGTTC | PBM E-score: 0.0778

More entries

Sequence | PBM E-score
AACATAAG | 0.246
GATACTTA | 0.0774
CCAATCGA | 0.135
CCTAAAGC | -0.0871
AATCGCTA | -0.14
GCCCTGAA | 0.22
TGAACTCA | 0.0191
GGGAGTAC | -0.155
ATCCATAC | -0.00501
ACCCAACG | 0.162
ATGAAATA | 0.14
GGGTAGAA | -0.196
CCCATTCC | -0.124
ATATGGAC | 0.0806
CTTCAACC | 0.0408
GCAGGCCC | -0.189
AAGATTAG | -0.0352
AAACTCCC | -0.0959
GATGTCCC | 0.081
ATTTTCGA | 0.0301
GTGGTCTA | -0.14
GCCTTAGC | -0.107
CCTAACCC | -0.314
GTCAGGAC | 0.0517
AACTAGAA | 0.105

Sequence | PBM E-score
ACGATGCT | -0.142
ACACCGTC | -0.175
AGCGCCCG | -0.141
CTTGGGAA | -0.0729
CACGGCCC | -0.253
CTAGTAGA | -0.0726
AATAGAAC | 0.0737
GCGTTGAA | 0.0451
CCGCGCCA | -0.00589
CAGTTGAC | 0.0781
ACACAAAG | 0.161
CAAATCAA | 0.144
CCGCACAC | -0.00671
TCGAGCGA | 0.18
CAAGTATG | 0.216
CCTGATTA | 0.143
AGATCGGA | -0.0196
ACAGTACA | 0.0768
AATTGTCC | 0.0909
CCCGGGCC | -0.13
GTGTATAA | -0.0972
GCCCTCGC | 0.0365
ATGTGGCG | 0.108
CCGACGCC | -0.0243
AATAGGGT | 0.157

Sequence | PBM E-score
CACACTCA | 0.2
CCGACTGA | -0.177
ATACACTA | 0.205
AGCCTCCC | -0.381
ATTCAACA | 0.121
AGCCTTTC | -0.125
GAAGTCAA | 0.122
AATCCTTA | -0.0973
CCTTTAAC | -0.0434
CCCCCCCG | -0.466
ATTCGCGA | 0.176
ATAGTCAT | -0.00142
AAAAGCCT | -0.283
CGAATCCG | 0.02
CAGATATA | 0.111
CACGCTCC | -0.265
CTTGAGGC | -0.0455
AACAGTAC | 0.0545
ACGCTGGC | -0.00592
AAGTACGC | -0.0553
ATTGTACA | -0.0175
TTATGCAA | 0.1
